# Test results published in patent US20240042019.
# Protein sequences, listed by entry. Tags and fused reporters are not part of them. Residues count along the entry.
# UniProt O00584, 25-256: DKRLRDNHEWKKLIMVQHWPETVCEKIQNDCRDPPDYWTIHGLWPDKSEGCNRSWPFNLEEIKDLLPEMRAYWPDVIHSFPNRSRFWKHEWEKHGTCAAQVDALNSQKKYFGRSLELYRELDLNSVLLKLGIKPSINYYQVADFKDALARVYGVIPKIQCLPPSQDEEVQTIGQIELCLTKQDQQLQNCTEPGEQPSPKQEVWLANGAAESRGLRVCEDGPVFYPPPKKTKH
# UniProt Q9NYK1, 27-1049: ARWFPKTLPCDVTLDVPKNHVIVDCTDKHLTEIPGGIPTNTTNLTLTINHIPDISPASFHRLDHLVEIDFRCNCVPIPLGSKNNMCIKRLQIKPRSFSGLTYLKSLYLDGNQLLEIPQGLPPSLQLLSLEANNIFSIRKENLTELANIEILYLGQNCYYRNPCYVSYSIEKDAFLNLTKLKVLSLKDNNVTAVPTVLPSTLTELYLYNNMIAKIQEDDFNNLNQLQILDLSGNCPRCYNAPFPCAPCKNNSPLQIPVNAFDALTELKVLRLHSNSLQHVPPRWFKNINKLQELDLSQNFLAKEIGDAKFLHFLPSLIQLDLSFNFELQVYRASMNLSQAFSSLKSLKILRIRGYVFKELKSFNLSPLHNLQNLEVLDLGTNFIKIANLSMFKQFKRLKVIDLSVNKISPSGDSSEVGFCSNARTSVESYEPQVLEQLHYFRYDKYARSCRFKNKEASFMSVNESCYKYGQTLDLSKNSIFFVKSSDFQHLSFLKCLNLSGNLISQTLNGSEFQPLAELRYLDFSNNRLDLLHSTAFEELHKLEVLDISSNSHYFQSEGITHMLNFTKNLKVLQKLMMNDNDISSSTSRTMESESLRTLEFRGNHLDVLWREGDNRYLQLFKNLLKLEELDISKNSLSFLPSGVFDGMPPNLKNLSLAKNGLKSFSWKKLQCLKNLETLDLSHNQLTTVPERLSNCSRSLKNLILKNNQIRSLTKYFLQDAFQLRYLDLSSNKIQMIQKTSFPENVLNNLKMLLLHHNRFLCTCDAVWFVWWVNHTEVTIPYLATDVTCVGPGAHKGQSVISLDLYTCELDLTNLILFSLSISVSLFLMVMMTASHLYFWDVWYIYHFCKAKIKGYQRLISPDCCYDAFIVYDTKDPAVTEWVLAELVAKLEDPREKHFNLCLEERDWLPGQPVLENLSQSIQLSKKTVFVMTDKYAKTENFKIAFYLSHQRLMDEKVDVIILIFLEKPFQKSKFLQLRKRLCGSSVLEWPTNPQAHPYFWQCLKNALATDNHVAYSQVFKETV
# For part of these data: The comparison behind a weaker result is the experiment's own reference, which may not be listed here. For part of these data: Where a protein sequence is shown, tags need not be part of it.
# Key:
# RNase T2 = RNase T2 (UniProt O00584); experiment: enzyme reaction in vitro; details: 2'-F U10, 2'-OMe U12; PS except PO 3' of each modified U; slower than ORN7013; purified recombinant protein; protein details: Origene recombinant; variant of ORN7013
# TLR7 (Homo sapiens) = TLR7 (Homo sapiens) (UniProt Q9NYK1); experiment: activity in cells; details: 2'-F U10, 2'-OMe U12; PS except PO 3' of each modified U; IFN-a maintained or lower vs ORN7013, p-L-arginine; protein in cells; protein details: endogenous in human PBMC (pDC); variant of ORN7013
# TLR8 (Homo sapiens) = molecular target: T1, TLR8 (Homo sapiens) (UniProt Q9NR97); experiment: activity in cells; details: 2'-F U10, 2'-OMe U12; PS except PO 3' of each modified U; TNF-a greatly reduced vs ORN7013, p-L-arginine; protein in cells; protein details: endogenous in human PBMC (monocytes); variant of ORN7013
# T1 sequence (looked up, limits assumed): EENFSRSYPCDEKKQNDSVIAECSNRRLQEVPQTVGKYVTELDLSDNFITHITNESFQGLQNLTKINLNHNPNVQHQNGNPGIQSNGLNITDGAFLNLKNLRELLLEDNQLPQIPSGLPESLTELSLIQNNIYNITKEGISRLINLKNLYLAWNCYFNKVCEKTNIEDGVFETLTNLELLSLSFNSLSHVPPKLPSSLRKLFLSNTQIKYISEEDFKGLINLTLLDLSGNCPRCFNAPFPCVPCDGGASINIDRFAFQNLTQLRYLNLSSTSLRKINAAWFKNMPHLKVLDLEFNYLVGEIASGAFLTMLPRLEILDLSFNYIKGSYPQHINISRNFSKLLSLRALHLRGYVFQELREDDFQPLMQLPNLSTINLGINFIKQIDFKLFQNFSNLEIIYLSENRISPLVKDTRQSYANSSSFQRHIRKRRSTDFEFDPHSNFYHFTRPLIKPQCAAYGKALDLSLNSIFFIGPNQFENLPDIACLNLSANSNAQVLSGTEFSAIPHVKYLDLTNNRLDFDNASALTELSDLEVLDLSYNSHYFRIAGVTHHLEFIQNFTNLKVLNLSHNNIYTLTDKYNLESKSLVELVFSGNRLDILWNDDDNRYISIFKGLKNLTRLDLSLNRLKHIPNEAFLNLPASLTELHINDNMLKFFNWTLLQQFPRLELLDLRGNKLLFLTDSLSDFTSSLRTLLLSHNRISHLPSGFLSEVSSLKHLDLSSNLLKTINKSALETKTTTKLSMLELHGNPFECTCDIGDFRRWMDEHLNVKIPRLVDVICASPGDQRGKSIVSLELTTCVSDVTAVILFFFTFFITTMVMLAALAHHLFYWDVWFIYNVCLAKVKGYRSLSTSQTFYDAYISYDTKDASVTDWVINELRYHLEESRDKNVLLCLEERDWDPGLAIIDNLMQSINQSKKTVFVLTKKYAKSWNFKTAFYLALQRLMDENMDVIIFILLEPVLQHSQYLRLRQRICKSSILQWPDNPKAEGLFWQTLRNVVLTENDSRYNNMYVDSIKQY
sequence,measurement,setting,value
CCGAGCCGCUUUUCCC [ORN7017],activity on this sequence,RNase T2,less active
same,functional effect,TLR7 (Homo sapiens),active
same,functional effect,TLR8 (Homo sapiens),less active
